No constants are given. Whether binding was seen depends on the method and setting. Binding seen in cells or lysates may run through a third protein. Some results given as binding are weak or reduced against the parent protein; the word gives no strength.
T1: BCL2 (mouse (endogenous in osteoclast precursors of C57BL/6 mice)), P10417
T1 chain: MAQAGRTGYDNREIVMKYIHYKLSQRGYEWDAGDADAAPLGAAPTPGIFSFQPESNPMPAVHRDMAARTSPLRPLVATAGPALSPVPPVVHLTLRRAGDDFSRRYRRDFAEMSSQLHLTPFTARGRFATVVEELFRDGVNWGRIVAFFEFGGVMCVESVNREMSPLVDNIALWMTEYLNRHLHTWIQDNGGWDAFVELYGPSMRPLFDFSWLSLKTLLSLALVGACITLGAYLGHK

B1: BNIP3, O55003 1-187 (protein)
chain: MSQSGEENLQGSWVELHFSNGNGSSVPASVSIYNGDMEKILLDAQHESGRSSSKSSHCDSPPRSQTPQDTNRAEIDSHSFGEKNSTLSEEDYIERRREVESILKKNSDWIWDWSSRPENIPPKEFLFKHPKRTATLSMRNTSVMKKGGIFSADFLKVFLPSLLLSHLLAIGLGIYIGRRLTTSTSTF
B2: BECN1, O88597 1-448 (protein)
chain: MEGSKASSSTMQVSFVCQRCSQPLKLDTSFKILDRVTIQELTAPLLTTAQAKPGETQEEEANSGEEPFIETRQDGVSRRFIPPARMMSTESANSFTLIGEASDGGTMENLSRRLKVTGDLFDIMSGQTDVDHPLCEECTDTLLDQLDTQLNVTENECQNYKRCLEILEQMNEDDSEQLQRELKELALEEERLIQELEDVEKNRKVVAENLEKVQAEAERLDQEEAQYQREYSEFKRQQLELDDELKSVENQVRYAQIQLDKLKKTNVFNATFHIWHSGQFGTINNFRLGRLPSVPVEWNEINAAWGQTVLLLHALANKMGLKFQRYRLVPYGNHSYLESLTDKSKELPLYCSGGLRFFWDNKFDHAMVAFLDCVQQFKEEVEKGETRFCLPYRMDVEKGKIEDTGGSGGSYSIKTQFNSEEQWTKALKFMLTNLKWGLAWVSSQFYNK

Biological target: T1, BCL2 (mouse (endogenous in osteoclast …))
Experiment: co-IP; lysates of osteoclast precursors treated with metformin (0, 10, 20 uM) for 5 d with 30 ng/mL M-CSF and 50 ng/mL RANKL, with or without lentiviral BNIP3 overexpression; 100 ug total protein with 5 ug anti-BCL2 or anti-BECN1 antibody overnight at 4 C, protein A/G-sepharose beads; non-specific IgG as negative control; immunoblot
Conditions: remark: other sources report otherwise

Row | Binder | binding
1 | B1 | binds
2 | B2 | binds

Source: article PMC9594975
